In the supplement of paper PMC10849652:
Some of the results follow.

Sequences of proteins named here, by UniProt entry; tags and fusion partners are left off. A change or cut given only in a name is not applied to a line headed by its entry.
UniProt P41247: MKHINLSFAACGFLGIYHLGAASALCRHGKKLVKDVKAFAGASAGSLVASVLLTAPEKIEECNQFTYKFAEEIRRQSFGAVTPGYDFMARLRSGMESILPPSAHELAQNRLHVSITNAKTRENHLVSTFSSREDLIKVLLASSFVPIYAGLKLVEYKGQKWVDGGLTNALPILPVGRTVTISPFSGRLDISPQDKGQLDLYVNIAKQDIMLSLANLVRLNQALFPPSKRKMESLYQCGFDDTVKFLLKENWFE
UniProt Q8IY26: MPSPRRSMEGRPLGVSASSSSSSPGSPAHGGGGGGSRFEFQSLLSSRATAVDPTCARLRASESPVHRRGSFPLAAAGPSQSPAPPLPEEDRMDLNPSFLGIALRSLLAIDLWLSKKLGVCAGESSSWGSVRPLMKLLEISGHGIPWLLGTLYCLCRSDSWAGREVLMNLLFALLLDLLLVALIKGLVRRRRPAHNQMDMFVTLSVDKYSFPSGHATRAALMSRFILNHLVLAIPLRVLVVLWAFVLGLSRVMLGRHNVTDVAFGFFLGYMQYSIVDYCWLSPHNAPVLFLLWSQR
UniProt P29590: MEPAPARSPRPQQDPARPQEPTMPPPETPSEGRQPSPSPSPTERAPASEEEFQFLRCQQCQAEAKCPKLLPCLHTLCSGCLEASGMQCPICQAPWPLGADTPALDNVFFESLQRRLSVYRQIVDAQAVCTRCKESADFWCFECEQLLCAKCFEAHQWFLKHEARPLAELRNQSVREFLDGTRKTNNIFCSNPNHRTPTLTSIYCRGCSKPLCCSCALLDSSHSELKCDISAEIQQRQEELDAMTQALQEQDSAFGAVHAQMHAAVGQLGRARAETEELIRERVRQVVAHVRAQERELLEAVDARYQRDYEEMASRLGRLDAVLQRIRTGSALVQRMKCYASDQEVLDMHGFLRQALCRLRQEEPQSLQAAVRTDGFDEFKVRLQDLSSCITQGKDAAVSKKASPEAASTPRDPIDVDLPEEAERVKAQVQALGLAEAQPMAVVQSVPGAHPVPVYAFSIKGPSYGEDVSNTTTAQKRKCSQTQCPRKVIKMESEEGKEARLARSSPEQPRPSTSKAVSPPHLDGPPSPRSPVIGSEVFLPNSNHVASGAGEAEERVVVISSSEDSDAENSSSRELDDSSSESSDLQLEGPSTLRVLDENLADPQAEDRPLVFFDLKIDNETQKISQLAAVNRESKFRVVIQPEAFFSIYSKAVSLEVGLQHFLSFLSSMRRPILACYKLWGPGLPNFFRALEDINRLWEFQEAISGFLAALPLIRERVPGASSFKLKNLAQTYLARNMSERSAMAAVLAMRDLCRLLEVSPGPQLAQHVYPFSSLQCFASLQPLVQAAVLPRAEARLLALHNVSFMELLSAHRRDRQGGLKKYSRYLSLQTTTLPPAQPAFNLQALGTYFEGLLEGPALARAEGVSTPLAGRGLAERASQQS
UniProt Q8WVV4: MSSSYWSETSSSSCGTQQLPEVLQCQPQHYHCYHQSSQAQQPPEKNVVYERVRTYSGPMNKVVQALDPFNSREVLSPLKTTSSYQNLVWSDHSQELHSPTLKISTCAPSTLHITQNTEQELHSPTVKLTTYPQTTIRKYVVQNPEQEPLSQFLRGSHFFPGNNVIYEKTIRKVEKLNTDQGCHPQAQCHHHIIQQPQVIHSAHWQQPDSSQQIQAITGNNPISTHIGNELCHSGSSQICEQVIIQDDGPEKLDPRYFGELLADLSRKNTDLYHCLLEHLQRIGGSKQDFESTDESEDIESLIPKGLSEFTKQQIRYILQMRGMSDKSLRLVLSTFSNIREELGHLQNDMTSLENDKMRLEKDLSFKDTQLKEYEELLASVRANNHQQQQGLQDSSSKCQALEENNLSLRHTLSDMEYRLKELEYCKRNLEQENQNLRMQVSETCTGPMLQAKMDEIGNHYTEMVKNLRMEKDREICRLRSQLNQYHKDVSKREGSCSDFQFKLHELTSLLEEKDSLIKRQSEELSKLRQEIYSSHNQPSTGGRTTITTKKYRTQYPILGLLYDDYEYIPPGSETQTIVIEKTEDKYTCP
UniProt Q7Z3K3: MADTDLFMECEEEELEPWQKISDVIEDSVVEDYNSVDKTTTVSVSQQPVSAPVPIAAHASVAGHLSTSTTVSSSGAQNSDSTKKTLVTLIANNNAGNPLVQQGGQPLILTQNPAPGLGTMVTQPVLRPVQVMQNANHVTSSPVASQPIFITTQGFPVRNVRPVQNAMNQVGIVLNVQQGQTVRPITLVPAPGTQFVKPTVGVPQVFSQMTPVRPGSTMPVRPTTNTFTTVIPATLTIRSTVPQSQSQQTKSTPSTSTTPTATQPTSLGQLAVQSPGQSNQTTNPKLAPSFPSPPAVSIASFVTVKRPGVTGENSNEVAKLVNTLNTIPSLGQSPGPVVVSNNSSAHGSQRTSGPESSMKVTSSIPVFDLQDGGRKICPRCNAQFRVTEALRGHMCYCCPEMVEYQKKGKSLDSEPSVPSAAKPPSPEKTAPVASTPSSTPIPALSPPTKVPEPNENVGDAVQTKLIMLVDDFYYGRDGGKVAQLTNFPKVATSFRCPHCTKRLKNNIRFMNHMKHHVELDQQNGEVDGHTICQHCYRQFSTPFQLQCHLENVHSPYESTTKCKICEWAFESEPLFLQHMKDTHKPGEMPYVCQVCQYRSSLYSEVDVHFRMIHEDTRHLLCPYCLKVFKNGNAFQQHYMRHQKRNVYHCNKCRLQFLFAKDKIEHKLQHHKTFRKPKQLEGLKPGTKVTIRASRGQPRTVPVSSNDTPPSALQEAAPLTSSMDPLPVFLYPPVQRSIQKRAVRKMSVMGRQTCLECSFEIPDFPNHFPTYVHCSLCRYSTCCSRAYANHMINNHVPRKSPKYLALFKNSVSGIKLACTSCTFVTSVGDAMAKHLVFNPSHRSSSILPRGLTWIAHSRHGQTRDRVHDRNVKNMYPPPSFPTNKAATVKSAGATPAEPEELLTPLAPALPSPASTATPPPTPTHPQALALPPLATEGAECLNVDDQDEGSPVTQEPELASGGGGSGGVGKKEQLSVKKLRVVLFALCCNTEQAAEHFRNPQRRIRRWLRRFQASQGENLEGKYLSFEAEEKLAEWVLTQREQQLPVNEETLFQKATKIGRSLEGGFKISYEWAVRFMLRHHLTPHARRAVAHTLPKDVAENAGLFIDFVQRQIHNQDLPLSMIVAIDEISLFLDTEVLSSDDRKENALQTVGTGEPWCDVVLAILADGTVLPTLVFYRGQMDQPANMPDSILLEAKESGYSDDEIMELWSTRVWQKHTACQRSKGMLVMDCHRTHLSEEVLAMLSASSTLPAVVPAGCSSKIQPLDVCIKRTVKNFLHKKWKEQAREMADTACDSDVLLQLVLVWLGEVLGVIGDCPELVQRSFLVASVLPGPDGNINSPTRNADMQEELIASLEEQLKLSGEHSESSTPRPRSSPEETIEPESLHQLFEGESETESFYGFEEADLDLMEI
UniProt Q9H5K3: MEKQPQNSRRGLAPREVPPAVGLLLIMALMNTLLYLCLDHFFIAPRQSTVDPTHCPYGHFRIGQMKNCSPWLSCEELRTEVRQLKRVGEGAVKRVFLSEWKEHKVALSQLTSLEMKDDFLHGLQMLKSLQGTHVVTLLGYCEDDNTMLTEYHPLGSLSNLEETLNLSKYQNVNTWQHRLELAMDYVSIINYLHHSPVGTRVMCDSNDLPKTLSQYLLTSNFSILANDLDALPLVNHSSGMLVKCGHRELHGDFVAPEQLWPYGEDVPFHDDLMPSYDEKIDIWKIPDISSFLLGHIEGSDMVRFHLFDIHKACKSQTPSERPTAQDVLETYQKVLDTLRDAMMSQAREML
UniProt Q9HBL7: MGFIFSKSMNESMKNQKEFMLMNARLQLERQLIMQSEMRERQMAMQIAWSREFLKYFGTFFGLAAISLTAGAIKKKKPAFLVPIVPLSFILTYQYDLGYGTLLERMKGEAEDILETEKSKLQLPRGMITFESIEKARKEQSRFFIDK
UniProt Q58EX7: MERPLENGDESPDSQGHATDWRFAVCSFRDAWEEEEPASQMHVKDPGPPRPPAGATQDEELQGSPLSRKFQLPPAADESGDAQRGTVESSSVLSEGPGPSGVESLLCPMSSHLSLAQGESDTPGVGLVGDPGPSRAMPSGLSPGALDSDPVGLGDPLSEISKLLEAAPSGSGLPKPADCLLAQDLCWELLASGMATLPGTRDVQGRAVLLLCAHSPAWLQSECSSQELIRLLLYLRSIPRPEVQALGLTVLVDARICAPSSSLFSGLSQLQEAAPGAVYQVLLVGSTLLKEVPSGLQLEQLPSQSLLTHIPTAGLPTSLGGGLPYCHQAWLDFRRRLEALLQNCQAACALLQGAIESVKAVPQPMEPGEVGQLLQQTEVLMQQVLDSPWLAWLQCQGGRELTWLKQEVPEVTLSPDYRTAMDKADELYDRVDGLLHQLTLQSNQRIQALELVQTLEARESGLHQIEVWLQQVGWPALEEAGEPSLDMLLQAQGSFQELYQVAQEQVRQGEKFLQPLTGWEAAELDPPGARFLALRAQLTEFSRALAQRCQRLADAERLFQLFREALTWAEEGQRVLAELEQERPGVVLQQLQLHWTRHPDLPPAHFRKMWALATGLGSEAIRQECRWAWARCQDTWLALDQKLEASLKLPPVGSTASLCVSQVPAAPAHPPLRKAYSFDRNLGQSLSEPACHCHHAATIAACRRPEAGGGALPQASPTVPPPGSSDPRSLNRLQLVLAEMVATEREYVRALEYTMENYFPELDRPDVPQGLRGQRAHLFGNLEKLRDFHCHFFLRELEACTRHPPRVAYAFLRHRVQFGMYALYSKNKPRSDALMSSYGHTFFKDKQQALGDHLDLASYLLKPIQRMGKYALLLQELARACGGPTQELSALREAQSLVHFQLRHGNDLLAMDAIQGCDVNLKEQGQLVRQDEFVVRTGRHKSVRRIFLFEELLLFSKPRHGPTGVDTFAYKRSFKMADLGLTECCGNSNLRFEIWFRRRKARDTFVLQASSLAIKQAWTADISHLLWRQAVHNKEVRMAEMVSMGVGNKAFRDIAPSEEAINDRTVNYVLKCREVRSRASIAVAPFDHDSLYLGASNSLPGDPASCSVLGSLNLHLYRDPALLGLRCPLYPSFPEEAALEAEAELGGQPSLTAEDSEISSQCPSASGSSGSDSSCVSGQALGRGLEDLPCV
UniProt P62937, whole entry, looked up: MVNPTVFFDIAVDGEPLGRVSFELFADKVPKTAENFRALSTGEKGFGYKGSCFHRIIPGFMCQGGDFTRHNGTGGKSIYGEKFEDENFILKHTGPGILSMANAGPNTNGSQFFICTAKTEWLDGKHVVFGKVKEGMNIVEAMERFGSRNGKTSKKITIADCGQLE
UniProt Q8IYS1: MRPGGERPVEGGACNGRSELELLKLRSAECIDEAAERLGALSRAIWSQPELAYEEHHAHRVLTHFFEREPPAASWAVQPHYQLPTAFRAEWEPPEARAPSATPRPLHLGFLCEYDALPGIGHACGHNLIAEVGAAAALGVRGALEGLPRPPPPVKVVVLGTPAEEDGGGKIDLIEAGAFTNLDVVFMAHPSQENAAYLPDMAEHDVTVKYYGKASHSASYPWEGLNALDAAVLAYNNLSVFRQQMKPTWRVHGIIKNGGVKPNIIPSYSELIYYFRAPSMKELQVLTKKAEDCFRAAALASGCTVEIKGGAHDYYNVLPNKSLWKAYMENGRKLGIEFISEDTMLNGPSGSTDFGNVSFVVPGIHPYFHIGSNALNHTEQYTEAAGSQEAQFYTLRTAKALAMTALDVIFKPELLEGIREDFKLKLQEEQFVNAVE
UniProt Q9UBT6: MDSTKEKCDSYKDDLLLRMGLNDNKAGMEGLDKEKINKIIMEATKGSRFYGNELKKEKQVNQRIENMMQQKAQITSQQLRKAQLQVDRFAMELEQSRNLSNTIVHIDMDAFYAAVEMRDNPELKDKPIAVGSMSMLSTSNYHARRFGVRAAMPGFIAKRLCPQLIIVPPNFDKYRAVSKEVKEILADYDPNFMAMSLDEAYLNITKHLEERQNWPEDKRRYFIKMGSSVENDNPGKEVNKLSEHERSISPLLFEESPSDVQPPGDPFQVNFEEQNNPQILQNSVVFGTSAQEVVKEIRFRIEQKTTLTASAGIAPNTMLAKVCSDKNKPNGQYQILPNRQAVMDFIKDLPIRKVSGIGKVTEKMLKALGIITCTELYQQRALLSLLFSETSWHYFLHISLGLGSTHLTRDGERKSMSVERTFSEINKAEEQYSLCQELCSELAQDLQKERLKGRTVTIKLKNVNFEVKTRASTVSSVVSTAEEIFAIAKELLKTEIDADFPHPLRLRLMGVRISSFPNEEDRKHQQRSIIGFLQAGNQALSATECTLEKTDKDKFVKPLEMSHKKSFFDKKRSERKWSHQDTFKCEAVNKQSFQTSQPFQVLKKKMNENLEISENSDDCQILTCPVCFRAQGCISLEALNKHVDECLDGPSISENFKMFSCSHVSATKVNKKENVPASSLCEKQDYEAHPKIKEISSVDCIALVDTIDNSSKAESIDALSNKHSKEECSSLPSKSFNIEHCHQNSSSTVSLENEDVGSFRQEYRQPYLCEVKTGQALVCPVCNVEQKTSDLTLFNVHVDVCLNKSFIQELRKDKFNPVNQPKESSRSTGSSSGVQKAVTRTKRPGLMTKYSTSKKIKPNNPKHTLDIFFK

Experiments:
Experiment in all cases: log2 fold change, soluble protein after heating vs DMSO (PISA); higher = thermal stabilisation; K562 lysate, 10 uM; active = over 0.2 and 3.5 SD of the protein, either way, in both replicates (recomputed)
lapatinib = compound: CS(=O)(=O)CCNCc1ccc(-c2ccc3ncnc(Nc4ccc(OCc5cccc(F)c5)c(Cl)c4)c3c2)o1 [lapatinib]
Method in brief: (§1)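 K562 pellets were dounce-homogenised in PBS pH 7.4 containing 1 mM MgCl2, and the crude extract, at 1 mg/mL protein, was exposed to 10 μM compound for 30 min. Aliquots were heated for 3 min across 48°C-58°C, pooled, brought to 0.5% NP-40 at 4°C and spun at 21,000xg for 90 min, with the supernatant taken as soluble protein. TMTpro 16plex LC-MS/MS with equalised channel sums quantified that protein. Values are log-two fold changes in thermal stability relative to solvent controls, taken from duplicates.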

crizotinib = compound: C[C@@H](Oc1cc(-c2cnn(C3CCNCC3)c2)cnc1N)c1c(Cl)ccc(F)c1Cl [crizotinib]
Method in brief: as §1

[1] = compound: C[C@H](C1=CC=C(C=C1)C(=O)NC2=C3C=CNC3=NC=C2)N
Method in brief: as §1

duvelisib = compound: C[C@H](Nc1ncnc2nc[nH]c12)c1cc2cccc(Cl)c2c(=O)n1-c1ccccc1 [duvelisib]
Method in brief: as §1

gandotinib = compound: Cc1cc(Nc2cc(CN3CCOCC3)c3nc(C)c(Cc4ccc(Cl)cc4F)n3n2)n[nH]1 [gandotinib]
Method in brief: as §1

tozasertib = compound: Cc1cc(Nc2cc(N3CCN(C)CC3)nc(Sc3ccc(NC(=O)C4CC4)cc3)n2)n[nH]1 [tozasertib]
Method in brief: as §1

doramapimod = compound: Cc1ccc(-n2nc(C(C)(C)C)cc2NC(=O)Nc2ccc(OCCN3CCOCC3)c3ccccc23)cc1 [doramapimod]
Method in brief: as §1

[2] = compound: Cc1cccc(CC(=O)N2CCc3c2ccc(-c2cn(C)c4ncnc(N)c24)c3F)n1
Method in brief: as §1

pictilisib = compound: CS(=O)(=O)N1CCN(Cc2cc3nc(-c4cccc5[nH]ncc45)nc(N4CCOCC4)c3s2)CC1 [pictilisib]
Method in brief: as §1

bafetinib = compound: Cc1ccc(NC(=O)c2ccc(CN3CC[C@H](N(C)C)C3)c(C(F)(F)F)c2)cc1Nc1nccc(-c2cncnc2)n1 [bafetinib]
Method in brief: as §1

## PLEKHH2 (UniProt E5RGK1)
lapatinib
  log2 fold change: inactive: 0.04
crizotinib
  log2 fold change: inactive: -0.052
[1]
  log2 fold change: inactive: 0.049
duvelisib
  log2 fold change: inactive: -0.049
gandotinib
  log2 fold change: inactive: -0.133
tozasertib
  log2 fold change: inactive: -0.066
doramapimod
  log2 fold change: inactive: 0.031
[2]
  log2 fold change: inactive: 0.059

## PNPLA4 (UniProt P41247)
crizotinib
  log2 fold change: inactive: -0.098
[1]
  log2 fold change: inactive: 0.121
duvelisib
  log2 fold change: inactive: 0.021
gandotinib
  log2 fold change: inactive: -0.019
tozasertib
  log2 fold change: inactive: -0.011
doramapimod
  log2 fold change: active: 0.825
[2]
  log2 fold change: inactive: -0.138

## PODXL (UniProt O00592)
[1]
  log2 fold change: inactive: 0.024
gandotinib
  log2 fold change: inactive: 0.207
[2]
  log2 fold change: inactive: -0.164

## PLPP6 (UniProt Q8IY26)
crizotinib
  log2 fold change: inactive: 0.028
[1]
  log2 fold change: inactive: 0.053
duvelisib
  log2 fold change: inactive: -0.028
gandotinib
  log2 fold change: inactive: -0.07
doramapimod
  log2 fold change: inactive: 0.04
[2]
  log2 fold change: inactive: 0.012

## POC1A (UniProt Q8NBT0)
lapatinib
  log2 fold change: inactive: -0.082
crizotinib
  log2 fold change: inactive: 0.125
[1]
  log2 fold change: inactive: -0.084
gandotinib
  log2 fold change: inactive: -0.097
tozasertib
  log2 fold change: inactive: 0.045
doramapimod
  log2 fold change: inactive: 0.153
[2]
  log2 fold change: inactive: -0.152

## PPHLN1 (UniProt Q8NEY8)
lapatinib
  log2 fold change: inactive: 0.011
crizotinib
  log2 fold change: inactive: -0.023
[1]
  log2 fold change: inactive: -0.016
gandotinib
  log2 fold change: inactive: 0.013
tozasertib
  log2 fold change: inactive: 0.028
doramapimod
  log2 fold change: inactive: 0.216
[2]
  log2 fold change: inactive: 0.059

## PLEKHM1 (UniProt Q9Y4G2)
crizotinib
  log2 fold change: inactive: 0.026
tozasertib
  log2 fold change: inactive: 0.071
doramapimod
  log2 fold change: inactive: -0.093

## PML isoform 11 (UniProt P29590)
[1]
  log2 fold change: inactive: -0.019
duvelisib
  log2 fold change: inactive: 0.024
gandotinib
  log2 fold change: inactive: 0.071
tozasertib
  log2 fold change: inactive: 0.116
[2]
  log2 fold change: inactive: 0.11

## PPFIBP1 (UniProt Q86W92)
crizotinib
  log2 fold change: inactive: -0.038
tozasertib
  log2 fold change: inactive: 0.146
doramapimod
  log2 fold change: inactive: -0.043

## POLI (UniProt Q9UNA4)
crizotinib
  log2 fold change: inactive: -0.368
doramapimod
  log2 fold change: inactive: -0.04

## POF1B isoform 1 (UniProt Q8WVV4)
[1]
  log2 fold change: inactive: 0.645
duvelisib
  log2 fold change: inactive: 0.013
gandotinib
  log2 fold change: inactive: 0.653
[2]
  log2 fold change: inactive: -0.172

## PNMT (UniProt P11086)
lapatinib
  log2 fold change: inactive: -0.08
crizotinib
  log2 fold change: inactive: -0.547
doramapimod
  log2 fold change: inactive: -0.172

## PLXNB1 (UniProt O43157)
crizotinib
  log2 fold change: inactive: -0.027
duvelisib
  log2 fold change: inactive: -0.007
doramapimod
  log2 fold change: inactive: -0.053

## POLR2K (UniProt P53803)
pictilisib
  log2 fold change: inactive: 0.02
crizotinib
  log2 fold change: inactive: 0.052
[1]
  log2 fold change: inactive: -0.048
duvelisib
  log2 fold change: inactive: 0.001
gandotinib
  log2 fold change: inactive: -0.04
tozasertib
  log2 fold change: inactive: 0.122
doramapimod
  log2 fold change: inactive: 0.129
bafetinib
  log2 fold change: inactive: 0.018
[2]
  log2 fold change: inactive: -0.095

## PLTP (UniProt P55058)
[1]
  log2 fold change: inactive: 0.055
duvelisib
  log2 fold change: inactive: 0.045
gandotinib
  log2 fold change: inactive: -0.456
[2]
  log2 fold change: inactive: -0.61

## POGZ (UniProt Q7Z3K3)
lapatinib
  log2 fold change: inactive: 0.087
crizotinib
  log2 fold change: inactive: 0.006
[1]
  log2 fold change: inactive: -0.281
duvelisib
  log2 fold change: inactive: 0.07
gandotinib
  log2 fold change: inactive: 0.052
tozasertib
  log2 fold change: inactive: 0.004
doramapimod
  log2 fold change: inactive: -0.002
[2]
  log2 fold change: inactive: 0.126

## POSTN (UniProt Q15063)
pictilisib
  log2 fold change: inactive: 0.002
crizotinib
  log2 fold change: inactive: -0.065
[1]
  log2 fold change: inactive: 0.011
gandotinib
  log2 fold change: inactive: 0.076
tozasertib
  log2 fold change: inactive: -0.07
doramapimod
  log2 fold change: inactive: 0.007
bafetinib
  log2 fold change: inactive: -0.115
[2]
  log2 fold change: inactive: -0.154

## POMK (UniProt Q9H5K3)
pictilisib
  log2 fold change: inactive: -0.138
crizotinib
  log2 fold change: inactive: -0.03
[1]
  log2 fold change: inactive: 0.061
duvelisib
  log2 fold change: inactive: -0.007
gandotinib
  log2 fold change: inactive: -0.11
tozasertib
  log2 fold change: inactive: -0.018
doramapimod
  log2 fold change: inactive: 0
bafetinib
  log2 fold change: inactive: -0.022
[2]
  log2 fold change: inactive: -0.009

## POC1B (UniProt Q8TC44)
duvelisib
  log2 fold change: inactive: -0.076
tozasertib
  log2 fold change: inactive: -0.109

## PLGRKT (UniProt Q9HBL7)
pictilisib
  log2 fold change: inactive: -0.042
crizotinib
  log2 fold change: inactive: -0.136
duvelisib
  log2 fold change: inactive: 0.203
tozasertib
  log2 fold change: inactive: 0.065
doramapimod
  log2 fold change: inactive: -0.009
bafetinib
  log2 fold change: inactive: -0.095

## PPFIBP2 (UniProt Q8ND30)
[1]
  log2 fold change: inactive: -0.049
gandotinib
  log2 fold change: inactive: 0.168
tozasertib
  log2 fold change: inactive: -0.13
[2]
  log2 fold change: inactive: -0.15

## POLR2F (UniProt U3KPV3)
duvelisib
  log2 fold change: inactive: 0.012
tozasertib
  log2 fold change: inactive: 0.109

## POLG2 (UniProt J3KRM2)
lapatinib
  log2 fold change: inactive: -0.167
pictilisib
  log2 fold change: inactive: -0.115
bafetinib
  log2 fold change: inactive: -0.225

## PPIC (UniProt P45877)
pictilisib
  log2 fold change: inactive: -0.003
crizotinib
  log2 fold change: inactive: -0.131
[1]
  log2 fold change: inactive: -0.078
duvelisib
  log2 fold change: inactive: -0.095
gandotinib
  log2 fold change: inactive: -0.042
doramapimod
  log2 fold change: inactive: 0.086
bafetinib
  log2 fold change: inactive: -0.061
[2]
  log2 fold change: inactive: 0.079

## PMM1 (UniProt Q92871)
pictilisib
  log2 fold change: inactive: -0.084
crizotinib
  log2 fold change: inactive: -0.043
[1]
  log2 fold change: inactive: -0.13
duvelisib
  log2 fold change: inactive: 0.057
gandotinib
  log2 fold change: inactive: -0.008
tozasertib
  log2 fold change: inactive: 0.005
doramapimod
  log2 fold change: inactive: 0.048
bafetinib
  log2 fold change: inactive: -0.028
[2]
  log2 fold change: inactive: 0.065

## PLEKHG4 (UniProt Q58EX7)
crizotinib
  log2 fold change: inactive: -0.054
[1]
  log2 fold change: inactive: 0.064
duvelisib
  log2 fold change: inactive: 0.095
gandotinib
  log2 fold change: inactive: -0.014
tozasertib
  log2 fold change: inactive: 0.045
doramapimod
  log2 fold change: inactive: -0.014
[2]
  log2 fold change: inactive: -0.11

## PLXND1 (UniProt Q9Y4D7)
pictilisib
  log2 fold change: inactive: 0.018
crizotinib
  log2 fold change: inactive: 0.067
duvelisib
  log2 fold change: inactive: -0.031
doramapimod
  log2 fold change: inactive: 0.171
bafetinib
  log2 fold change: active: -0.461

## PPIA isoform 2 (UniProt P62937)
pictilisib
  log2 fold change: inactive: 0
bafetinib
  log2 fold change: inactive: 0.218

## POMT1 (UniProt Q9Y6A1)
lapatinib
  log2 fold change: inactive: -0.142
duvelisib
  log2 fold change: inactive: -0.057

## PM20D2 (UniProt Q8IYS1)
lapatinib
  log2 fold change: inactive: 0.047
pictilisib
  log2 fold change: inactive: -0.395
tozasertib
  log2 fold change: inactive: 0.08
bafetinib
  log2 fold change: inactive: -0.037

## POLK (UniProt Q9UBT6)
lapatinib
  log2 fold change: inactive: -0.281
pictilisib
  log2 fold change: inactive: 0.194
bafetinib
  log2 fold change: inactive: 0.126

## PLSCR3 (UniProt Q9NRY6)
lapatinib
  log2 fold change: inactive: -0.036
crizotinib
  log2 fold change: inactive: 0.086
[1]
  log2 fold change: inactive: 0.045
duvelisib
  log2 fold change: inactive: 0.117
gandotinib
  log2 fold change: inactive: -0.015
tozasertib
  log2 fold change: inactive: -0.439
doramapimod
  log2 fold change: inactive: 0.048
[2]
  log2 fold change: inactive: -0.085

## POMGNT2 (UniProt Q8NAT1)
lapatinib
  log2 fold change: inactive: -0.049
crizotinib
  log2 fold change: inactive: 0.029
[1]
  log2 fold change: inactive: -0.02
duvelisib
  log2 fold change: inactive: -0.053
gandotinib
  log2 fold change: inactive: 0.052
tozasertib
  log2 fold change: inactive: -0.137
doramapimod
  log2 fold change: inactive: 0.015
[2]
  log2 fold change: inactive: -0.102

## PLOD2 isoform 2 (UniProt O00469)
pictilisib
  log2 fold change: inactive: 0.073
duvelisib
  log2 fold change: inactive: -0.295
tozasertib
  log2 fold change: inactive: 0.221
bafetinib
  log2 fold change: inactive: -0.093

## PLPPR3 isoform 3 (UniProt Q6T4P5)
duvelisib
  log2 fold change: inactive: -0.089
